This assay deals with RFP-RNF26 ΔRING. Briefly: co-IP; U2OS co-transfected with RFP-RNF26 variants and HA-HERP1 or HA-HRD1; lysis in 1% DMNG, 150 mM NaCl, 50 mM Tris-HCl pH 7.5, 5 mM MgCl2; RFP-TRAP beads; western blot.

These are yes or no findings as the source states them, for the method shown. In cells and extracts the contact can be indirect. Binding calls can cover weak binding; strength is not graded here. Where a sequence is shown, tags or fusion partners need not be part of it.

B1: HA-HERP1 (protein, UniProt Q15011 1-391)
chain: MESETEPEPVTLLVKSPNQRHRDLELSGDRGWSVGHLKAHLSRVYPERPRPEDQRLIYSGKLLLDHQCLRDLLPKQEKRHVLHLVCNVKSPSKMPEINAKVAESTEEPAGSNRGQYPEDSSSDGLRQREVLRNLSSPGWENISRPEAAQQAFQGLGPGFSGYTPYGWLQLSWFQQIYARQYYMQYLAATAASGAFVPPPSAQEIPVVSAPAPAPIHNQFPAENQPANQNAAPQVVVNPGANQNLRMNAQGGPIVEEDDEINRDWLDWTYSAATFSVFLSILYFYSSLSRFLMVMGATVVMYLHHVGWFPFRPRPVQNFPNDGPPPDVVNQDPNNNLQEGTDPETEDPNHLPPDRDVLDGEQTSPSFMSTAWLVFKTFFASLLPEGPPAIAN
As for B1, the binding result is “binds”.
